According to paper PMC8213733, “Subtype-specific collaborative transcription factor networks are promoted by OCT4 in the progression of prostate cancer” (Nature Communications, 2021):
These are yes or no findings as the source states them, for the method shown. For part of these data: Binding seen in cells or lysates may run through a third protein. Some binding calls cover weakened binding; strength is not graded here. For part of these data: Sequences can lack the tags named with a protein.

Protein sequences, listed by entry. Tags and fused reporters are not part of them.
UniProt P10275: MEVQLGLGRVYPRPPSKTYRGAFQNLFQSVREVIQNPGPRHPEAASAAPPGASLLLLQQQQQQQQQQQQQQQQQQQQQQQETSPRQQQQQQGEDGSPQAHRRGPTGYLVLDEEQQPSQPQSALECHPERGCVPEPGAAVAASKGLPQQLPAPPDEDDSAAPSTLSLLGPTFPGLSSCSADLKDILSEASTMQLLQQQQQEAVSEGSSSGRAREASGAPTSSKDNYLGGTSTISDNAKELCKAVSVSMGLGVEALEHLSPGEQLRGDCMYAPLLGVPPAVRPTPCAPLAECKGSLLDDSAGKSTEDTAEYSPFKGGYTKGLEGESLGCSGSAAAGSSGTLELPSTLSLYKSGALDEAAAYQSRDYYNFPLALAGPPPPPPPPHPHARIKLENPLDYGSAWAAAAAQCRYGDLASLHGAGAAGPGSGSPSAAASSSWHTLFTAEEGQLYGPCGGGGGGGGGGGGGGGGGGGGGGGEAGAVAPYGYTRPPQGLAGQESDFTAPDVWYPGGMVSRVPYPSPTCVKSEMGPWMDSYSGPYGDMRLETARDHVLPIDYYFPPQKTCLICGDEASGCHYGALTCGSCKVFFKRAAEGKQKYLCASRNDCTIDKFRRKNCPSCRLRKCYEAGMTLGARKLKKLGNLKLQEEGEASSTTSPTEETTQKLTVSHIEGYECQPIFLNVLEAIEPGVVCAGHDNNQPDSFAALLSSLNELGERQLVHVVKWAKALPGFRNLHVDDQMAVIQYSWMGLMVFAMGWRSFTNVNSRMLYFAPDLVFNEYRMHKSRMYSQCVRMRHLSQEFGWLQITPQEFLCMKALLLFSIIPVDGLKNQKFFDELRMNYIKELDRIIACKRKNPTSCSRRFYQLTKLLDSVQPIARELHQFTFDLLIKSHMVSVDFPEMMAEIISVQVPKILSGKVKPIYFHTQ
UniProt Q01860: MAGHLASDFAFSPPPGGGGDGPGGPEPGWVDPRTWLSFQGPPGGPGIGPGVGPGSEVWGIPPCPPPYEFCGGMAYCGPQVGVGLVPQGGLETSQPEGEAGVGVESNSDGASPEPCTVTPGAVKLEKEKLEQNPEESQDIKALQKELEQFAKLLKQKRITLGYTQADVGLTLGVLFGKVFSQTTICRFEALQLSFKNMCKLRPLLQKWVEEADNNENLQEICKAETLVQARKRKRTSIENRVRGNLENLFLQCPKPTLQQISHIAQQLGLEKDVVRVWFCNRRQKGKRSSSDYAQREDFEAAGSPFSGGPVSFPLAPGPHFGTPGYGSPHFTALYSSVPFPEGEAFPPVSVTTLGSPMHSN

Tests used:
[1] = molecular target: T1, Flag-FOXA1 (human (cDNA of PC cells, said of the Venus constructs)) (UniProt P55317); assay: co-IP; with and without added AR (Supplementary Fig. 1e); set-up not shown
T1 sequence: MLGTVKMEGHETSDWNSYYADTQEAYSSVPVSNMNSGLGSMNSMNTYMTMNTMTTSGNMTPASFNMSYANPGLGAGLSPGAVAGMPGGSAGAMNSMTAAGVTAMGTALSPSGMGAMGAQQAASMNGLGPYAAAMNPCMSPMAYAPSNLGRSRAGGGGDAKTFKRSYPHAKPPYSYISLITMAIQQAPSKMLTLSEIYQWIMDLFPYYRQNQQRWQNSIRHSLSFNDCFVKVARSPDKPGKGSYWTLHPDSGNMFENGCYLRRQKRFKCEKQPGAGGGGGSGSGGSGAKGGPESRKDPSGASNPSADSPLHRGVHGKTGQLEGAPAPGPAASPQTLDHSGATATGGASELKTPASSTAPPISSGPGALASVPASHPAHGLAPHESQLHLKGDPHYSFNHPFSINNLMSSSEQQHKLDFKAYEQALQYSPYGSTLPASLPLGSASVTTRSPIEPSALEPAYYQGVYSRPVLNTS

[2] = molecular target: Flag-AR (human (cDNA of PC cells, said of the Venus constructs)) (UniProt P10275); assay: co-IP; full-length OCT4 and deletion mutants tested for association with AR (Supplementary Fig. 3a); set-up not shown
[3] = molecular target: T1, Flag-FOXA1 (human (cDNA of PC cells, said of the Venus constructs)); assay: co-IP; in vitro binding assay: purified proteins in 20 mM Tris-HCl pH 7.5, 150 mM NaCl, 0.1% Triton X-100, 1 mM DTT, 4 °C, 5 h; FOXA1 immunoprecipitated, bound proteins by western blot; with or without ribavirin-phosphate; both purified
[4] = molecular target: OCT4 (human (endogenous in LNCaP, 22Rv1, DU145-CR, PC3-CR)) (UniProt Q01860); assay: co-IP; xenograft tumours (22Rv1; DU145-CR) homogenised in RIPA buffer; mice treated with vehicle or ribavirin
[5] = molecular target: OCT4 (human (endogenous in LNCaP, 22Rv1, DU145-CR, PC3-CR)) (UniProt Q01860); assay: co-IP; immunoprecipitation and western blot (Supplementary Fig. 6d); cells not named for this experiment (section on DU145 cells)
[6] = molecular target: OCT4 (human (endogenous in LNCaP, 22Rv1, DU145-CR, PC3-CR)) (UniProt Q01860); assay: co-IP; endogenous proteins; whole cell extracts in 50 mM Tris-HCl pH 8.0, 150 mM NaCl, 1% NP-40; indicated antibodies overnight at 4 °C, protein G agarose; LNCaP and 22Rv1 cells (with DHT), DU145-CR and PC3-CR cells

Measured: binding

HA-OCT4 (from UniProt Q01860 1-360)
binds: [1] | [2] | [3]

B1: nuclear respiratory factor 1 (protein, UniProt Q16656 1-503)
chain: MEEHGVTQTEHMATIEAHAVAQQVQQVHVATYTEHSMLSADEDSPSSPEDTSYDDSDILNSTAADEVTAHLAAAGPVGMAAAAAVATGKKRKRPHVFESNPSIRKRQQTRLLRKLRATLDEYTTRVGQQAIVLCISPSKPNPVFKVFGAAPLENVVRKYKSMILEDLESALAEHAPAPQEVNSELPPLTIDGIPVSVDKMTQAQLRAFIPEMLKYSTGRGKPGWGKESCKPIWWPEDIPWANVRSDVRTEEQKQRVSWTQALRTIVKNCYKQHGREDLLYAFEDQQTQTQATATHSIAHLVPSQTVVQTFSNPDGTVSLIQVGTGATVATLADASELPTTVTVAQVNYSAVADGEVEQNWATLQGGEMTIQTTQASEATQAVASLAEAAVAASQEMQQGATVTMALNSEAAAHAVATLAEATLQGGGQIVLSGETAAAVGALTGVQDANGLVQIPVSMYQTVVTSLAQGNGPVQVAMAPVTTRISDSAVTMDGQAVEVVTLEQ
binds: [4] | [5] | [6]
